Results on four molecules are retold here after PMC9851907, “A single 2′-O-methylation of ribosomal RNA gates assembly of a functional ribosome” (Nature Structural & Molecular Biology, 2022).

Sequences of proteins named here, by UniProt entry; tags and fusion partners are left off.
UniProt P53742: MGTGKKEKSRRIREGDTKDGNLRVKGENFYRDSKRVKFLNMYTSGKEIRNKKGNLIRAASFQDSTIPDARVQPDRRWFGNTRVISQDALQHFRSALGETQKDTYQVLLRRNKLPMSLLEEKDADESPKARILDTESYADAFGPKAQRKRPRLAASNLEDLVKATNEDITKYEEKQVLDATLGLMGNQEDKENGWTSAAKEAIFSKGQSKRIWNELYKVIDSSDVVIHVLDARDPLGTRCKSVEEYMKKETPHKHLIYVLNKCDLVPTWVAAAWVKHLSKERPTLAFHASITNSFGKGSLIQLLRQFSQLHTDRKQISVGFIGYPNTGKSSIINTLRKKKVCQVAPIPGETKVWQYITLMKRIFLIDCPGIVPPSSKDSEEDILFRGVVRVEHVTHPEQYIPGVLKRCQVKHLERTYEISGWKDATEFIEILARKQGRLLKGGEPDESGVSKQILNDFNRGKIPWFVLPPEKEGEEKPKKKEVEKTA
UniProt P0CX53: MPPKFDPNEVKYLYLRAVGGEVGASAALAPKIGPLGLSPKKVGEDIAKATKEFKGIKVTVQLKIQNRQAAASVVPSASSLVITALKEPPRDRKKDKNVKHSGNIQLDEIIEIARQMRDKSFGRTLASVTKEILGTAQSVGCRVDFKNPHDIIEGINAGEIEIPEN

The target of test [1] is Nog2-3xFLAG-6xHis (S. cerevisiae (endogenous locus in BY4741-derived strain AJY4427)) (UniProt P53742). Nature of the test: cryo-EM structure; pre-60S particle with unmodified G2922, immunopurified through Nog2-3xFLAG from spb1-D52A cells; 2.9 Å overall; proteins are members of one ribonucleoprotein particle.
For test [2] the target is unchanged. Described as above. This is another data set of the same source.

Read-outs that look alike come from different tables or passages of the source. These are yes or no findings as the source states them, for the method shown. Some entries that bind do so weakly or less than the wild type.

Regarding uL11 (from UniProt P0CX53 1-165), in test [1], the binding entry was “binds”.

B1: Bud20 (protein, UniProt Q08004 1-166)
chain: MGRYSVKRYKTKRRTRDLDLIYNDLSTKESVQKLLNQPLDETKPGLGQHYCIHCAKYMETAIALKTHLKGKVHKRRVKELRGVPYTQEVSDAAAGYNLNKFLNRVQEITQSVGPEKESNEALLKEHLDSTLANVKTTEPTLPWAAADAEANTAAVTEAESTASAST
For B1, the binding result in test [2] is given as “binds”.

B2: Alb1 (protein, UniProt P47019 1-175)
chain: MPSKNSINRPKLTSNLHHKVHSLNKKRAQRERAGLLKPARSSVNSKSGEIKSVALDLYFQNKKNESQNSTAVTLQNASSSPASITTRTLSKKRAKKIERNLKYATQRKLLVDASAKLEDEMDIDLDGGKKVKENEKKSSLTLVKEALWSVIDDTASQGLIIENGQGTTLGGPFFP
In the case of B2, the binding entry in test [2] is given as “binds”.

B3: Rsa4 (protein, UniProt P25382 1-515)
chain: MSTLIPPPSKKQKKEAQLPREVAIIPKDLPNVSIKFQALDTGDNVGGALRVPGAISEKQLEELLNQLNGTSDDPVPYTFSCTIQGKKASDPVKTIDITDNLYSSLIKPGYNSTEDQITLLYTPRAVFKVKPVTRSSSAIAGHGSTILCSAFAPHTSSRMVTGAGDNTARIWDCDTQTPMHTLKGHYNWVLCVSWSPDGEVIATGSMDNTIRLWDPKSGQCLGDALRGHSKWITSLSWEPIHLVKPGSKPRLASSSKDGTIKIWDTVSRVCQYTMSGHTNSVSCVKWGGQGLLYSGSHDRTVRVWDINSQGRCINILKSHAHWVNHLSLSTDYALRIGAFDHTGKKPSTPEEAQKKALENYEKICKKNGNSEEMMVTASDDYTMFLWNPLKSTKPIARMTGHQKLVNHVAFSPDGRYIVSASFDNSIKLWDGRDGKFISTFRGHVASVYQVAWSSDCRLLVSCSKDTTLKVWDVRTRKLSVDLPGHKDEVYTVDWSVDGKRVCSGGKDKMVRLWTH
B3: the binding entry in test [2] was “binds”.
